Assay results published in patent publication US20110008264A1, “METHOD FOR REPELLING A RODENT, METHOD FOR CAPTURING A RODENT AND RODENT REPELLENT” (Earth Chemical Co., Ltd., priority 2006, published 2011).

Conditions: average over 30 minutes at 5 minute intervals, room A; corrected by subtracting the control (about 309 cpm)

| Structure (SMILES) | Average dust quantity (smoke quantity) [cpm] |
| --- | --- |
| NC(=O)N=NC(N)=O [Example 1, azodicarbonamide] | 46.4 |
| NC(=O)N=NC(N)=O [Example 2, azodicarbonamide] | 227.8 |
